Test results published in patent US20110071141A1, “Pesticidial Condensed-Ring Aryl Compounds” (Bayer CropScience AG, priority 2008, published 2011).
Some of these results come from one statement about several compounds together.

What follows are compounds tested on Tetranychus urticae (assay: Test on Tetranychus urticae (spray test)). Settings: active compound concentration 100 ppm; adult mites on pinto bean sprayed; 7 days.
Assay type: in vivo
Description: The test solution has been prepared as described in biological test example 1. 50 to 100 adult Tetranychus urticae were placed on pinto bean leaves at true leaf stage having two main leaves that had been grown in a pot (6 cm diameter). After 1 day, a generous amount of the test solution which has been diluted with water to the predetermined concentration was sprayed thereto using a spray gun.
After keeping the pot in a green house for 7 days, acaricidal ratio was calculated. 100% means that all the mites have been killed; 0% means that none of the mites have been killed.

| SMILES | mortality (acaricidal ratio) |
| --- | --- |
| CN1Cc2cc(C3=NOC(c4cc(Cl)cc(Cl)c4)(C(F)(F)F)C3)ccc2C(=O)N1C (stereo not shown) [Example 1-127] | ≥ 98% |
| N=C1OCc2cc(C3=NOC(c4cc(Cl)cc(Cl)c4)(C(F)(F)F)C3)ccc21 (stereo not shown) [Example 1-232, 5-[5-(3,5-dichlorophenyl)-5-(trifluoromethyl)-4,5-dihydroisoxazol-3-yl]-2-benzofuran-1(3H)-imine] | ≥ 98% |
| CC(=O)/N=C1\c2ccc(C3=NOC(c4cc(Cl)cc(Cl)c4)(C(F)(F)F)C3)cc2CN1Cc1ccccn1 (stereo not shown) [Example 1-235, N-[(1E)-5-[5-(3,5-dichlorophenyl)-5-(trifluoromethyl)-4,5-dihydroisoxazol-3-yl]-2-(pyridin-2-ylmethyl)-2,3-dihydro-1H-isoindol-1-ylinden]acetamide] | ≥ 98% |
| CC(=O)n1ncc2cc(C3=NOC(c4cc(Cl)cc(Cl)c4)(C(F)(F)F)C3)ccc2c1=O (stereo not shown) [Example 1-259] | ≥ 98% |
| O=c1[nH]ncc2cc(C3=NOC(c4cc(Cl)c(Cl)c(Cl)c4)(C(F)(F)F)C3)ccc12 (stereo not shown) [Example 1-273] | ≥ 98% |
| CC(=O)NC1CCc2cc(C3=NOC(c4cc(Cl)cc(Cl)c4)(C(F)(F)F)C3)ccc21 (stereo not shown) [Example 3-3, N-{5-[5-(3,5-dichlorophenyl)-5-(trifluoromethyl)-4,5-dihydroisoxazol-3-yl]-2,3-dihydro-1H-inden-1-yl}acetamide] | ≥ 98% |
| O=C(CC(F)(F)F)NC1CCc2cc(C3=NOC(c4cc(Cl)cc(Cl)c4)(C(F)(F)F)C3)ccc21 (stereo not shown) [Example 3-6] | ≥ 98% |
| CN(C)C(=O)NC1CCc2cc(C3=NOC(c4cc(Cl)c(Cl)c(Cl)c4)(C(F)(F)F)C3)ccc21 (stereo not shown) [Example 3-61] | ≥ 98% |
| O=C(CC(F)(F)F)NC1CCc2cc(C3=NOC(c4cc(Br)cc(Br)c4)(C(F)(F)F)C3)ccc21 (stereo not shown) [Example 3-82] | ≥ 98% |
| CC(=O)NC1CCc2cc(C3=NOC(c4cc(C(F)(F)F)cc(C(F)(F)F)c4)(C(F)(F)F)C3)ccc21 (stereo not shown) [Example 3-88] | ≥ 98% |
| CC(=O)NC1CCc2cc(C3=NCC(c4cc(Cl)c(Cl)c(Cl)c4)(C(F)(F)F)C3)ccc21 (stereo not shown) [Example 3-142] | ≥ 98% |
| CCC(=O)NC1CCc2cc(C3=NCC(c4cc(Cl)c(Cl)c(Cl)c4)(C(F)(F)F)C3)ccc21 (stereo not shown) [Example 3-143] | ≥ 98% |
| O=C(CC(F)(F)F)NC1CCc2cc(C3=NCC(c4cc(Cl)c(Cl)c(Cl)c4)(C(F)(F)F)C3)ccc21 (stereo not shown) [Example 3-145] | ≥ 98% |
| CC(C)(C)OC(=O)NC1CCc2cc(C3=NCC(c4cc(Cl)c(Cl)c(Cl)c4)(C(F)(F)F)C3)ccc21 (stereo not shown) [Example 3-166] | ≥ 98% |
| CC(=O)NC1CCc2cc(C3=NCC(c4cc(C(F)(F)F)cc(C(F)(F)F)c4)(C(F)(F)F)C3)ccc21 (stereo not shown) [Example 3-188] | ≥ 98% |
| O=C(NC1CCc2cc(C3=NCC(c4cc(C(F)(F)F)cc(C(F)(F)F)c4)(C(F)(F)F)C3)ccc21)C1CC1 (stereo not shown) [Example 3-191] | ≥ 98% |
| CCNC(=O)NC1CCc2cc(C3=NCC(c4cc(C(F)(F)F)cc(C(F)(F)F)c4)(C(F)(F)F)C3)ccc21 (stereo not shown) [Example 3-193] | ≥ 98% |
| CNC(=O)NC1CCCc2cc(C3=NOC(c4cc(Cl)cc(Cl)c4)(C(F)(F)F)C3)ccc21 (stereo not shown) [Example 3-220] | ≥ 98% |
| CN(C)C(=O)NC1CCCc2cc(C3=NOC(c4cc(Cl)cc(Cl)c4)(C(F)(F)F)C3)ccc21 (stereo not shown) [Example 3-238] | ≥ 98% |
| CNC(=O)NC1CCCc2cc(C3=NOC(c4cc(C(F)(F)F)cc(C(F)(F)F)c4)(C(F)(F)F)C3)ccc21 (stereo not shown) [Example 3-306] | ≥ 98% |

| SMILES | mortality (acaricidal ratio) |
| --- | --- |
| O=C(Nc1cccc2cc(C3=NCC(c4cc(Cl)c(Cl)c(Cl)c4)(C(F)(F)F)C3)ccc12)C1CC1 (stereo not shown) [Example 3-549] | ≥ 98% |
| CCNC(=O)Nc1cccc2cc(C3=NCC(c4cc(Cl)c(Cl)c(Cl)c4)(C(F)(F)F)C3)ccc12 (stereo not shown) [Example 3-551] | ≥ 98% |
| O=C(NC1CCc2cc(C3=NOC(c4cc(C(F)(F)F)cc(C(F)(F)F)c4)(C(F)(F)F)C3)ccc21)N1CCC1 (stereo not shown) [Example 3-839] | ≥ 98% |
| CC(C)(C)OC(=O)NC1CCc2cc(C3=NCC(c4cc(C(F)(F)F)cc(C(F)(F)F)c4)(C(F)(F)F)C3)ccc21 (stereo not shown) [Example 3-840] | ≥ 98% |
| NC(=O)NC1CCc2cc(C3=NOC(c4cc(Cl)c(Cl)c(Cl)c4)(C(F)(F)F)C3)ccc21 (stereo not shown) [Example 3-841] | ≥ 98% |
| O=S(=O)(NC1CCc2cc(C3=NOC(c4cc(Cl)c(Cl)c(Cl)c4)(C(F)(F)F)C3)ccc21)C(F)F (stereo not shown) [Example 3-842] | ≥ 98% |
| O=S(=O)(CC(F)(F)F)NC1CCc2cc(C3=NOC(c4cc(Cl)c(Cl)c(Cl)c4)(C(F)(F)F)C3)ccc21 (stereo not shown) [Example 3-843] | ≥ 98% |
| CN(C)CC(=O)NC1CCc2cc(C3=NOC(c4cc(Cl)c(Cl)c(Cl)c4)(C(F)(F)F)C3)ccc21 (stereo not shown) [Example 3-850] | ≥ 98% |
| CS(=O)(=O)CC(=O)NC1CCc2cc(C3=NOC(c4cc(Cl)c(Cl)c(Cl)c4)(C(F)(F)F)C3)ccc21 (stereo not shown) [Example 3-854] | ≥ 98% |
| O=C(NC1CCc2cc(C3=NOC(c4cc(Cl)c(Cl)c(Cl)c4)(C(F)(F)F)C3)ccc21)C1CC1(F)F (stereo not shown) [Example 3-855] | ≥ 98% |
| O=C(NC1CCc2cc(C3=NOC(c4cc(Cl)c(Cl)c(Cl)c4)(C(F)(F)F)C3)ccc21)NC1CC1F (stereo not shown) [Example 3-856] | ≥ 98% |
| CC(=O)C(C)C(=O)NC1CCc2cc(C3=NOC(c4cc(Cl)cc(Cl)c4)(C(F)(F)F)C3)ccc21 (stereo not shown) [Example 3-866] | ≥ 98% |
| CN1CCCC1C(=O)NC1CCc2cc(C3=NOC(c4cc(Cl)cc(Cl)c4)(C(F)(F)F)C3)ccc21 (stereo not shown) [Example 3-867] | ≥ 98% |
| CCCCC(=O)NC1CCc2cc(C3=NOC(c4cc(Cl)cc(Cl)c4)(C(F)(F)F)C3)ccc21 (stereo not shown) [Example 3-869] | ≥ 98% |
| CCCNC(=O)NC1CCc2cc(C3=NOC(c4cc(Cl)cc(Cl)c4)(C(F)(F)F)C3)ccc21 (stereo not shown) [Example 3-870] | ≥ 98% |
| O=C1CCC(=O)N1C1CCc2cc(C3=NOC(c4cc(Cl)cc(Cl)c4)(C(F)(F)F)C3)ccc21 (stereo not shown) [Example 3-871] | ≥ 98% |
| C[S+]([O-])CC(=O)NC1CCc2cc(C3=NOC(c4cc(Cl)cc(Cl)c4)(C(F)(F)F)C3)ccc21 (stereo not shown) [Example 3-873] | ≥ 98% |
| CS(=O)(=O)CC(=O)NC1CCc2cc(C3=NOC(c4cc(Cl)cc(Cl)c4)(C(F)(F)F)C3)ccc21 (stereo not shown) [Example 3-874] | ≥ 98% |
| CCSCC(=O)NC1CCc2cc(C3=NOC(c4cc(Cl)cc(Cl)c4)(C(F)(F)F)C3)ccc21 (stereo not shown) [Example 3-875] | ≥ 98% |
| C=CCC(=O)NC1CCc2cc(C3=NOC(c4cc(Cl)cc(Cl)c4)(C(F)(F)F)C3)ccc21 (stereo not shown) [Example 3-876] | ≥ 98% |

| SMILES | mortality (acaricidal ratio) |
| --- | --- |
| C#CCNC(=O)NC1CCc2cc(C3=NOC(c4cc(Cl)cc(Cl)c4)(C(F)(F)F)C3)ccc21 (stereo not shown) [Example 3-877] | ≥ 98% |
| O=C(CC(F)(F)F)NC1CCc2cc(C3=NOC(c4cc(F)cc(F)c4)(C(F)(F)F)C3)ccc21 (stereo not shown) [Example 3-883] | ≥ 98% |
| O=C(CC(F)(F)F)NC1CCc2cc(C3=NOC(c4ccc(C(F)(F)F)cc4)(C(F)(F)F)C3)ccc21 (stereo not shown) [Example 3-884] | ≥ 98% |
| O=C(CC(F)(F)F)NC1CCc2cc(C3=NOC(c4cccc([N+](=O)[O-])c4)(C(F)(F)F)C3)ccc21 (stereo not shown) [Example 3-885] | ≥ 98% |
| N#Cc1cccc(C2(C(F)(F)F)CC(c3ccc4c(c3)CCC4NC(=O)CC(F)(F)F)=NO2)c1 (stereo not shown) [Example 3-886] | ≥ 98% |
| O=C(CC(F)(F)F)NC1CCc2cc(C3=NOC(c4cccc(C(F)(F)F)c4)(C(F)(F)F)C3)ccc21 (stereo not shown) [Example 3-887] | ≥ 98% |
| O=C(CC(F)(F)F)NC1CCc2cc(C3=NOC(c4cc(Cl)cc(C(F)(F)F)c4)(C(F)(F)F)C3)ccc21 (stereo not shown) [Example 3-888] | ≥ 98% |
| CSc1cccc(C2(C(F)(F)F)CC(c3ccc4c(c3)CCC4NC(=O)CC(F)(F)F)=NO2)c1 (stereo not shown) [Example 3-889] | ≥ 98% |
| O=C(CC(F)(F)F)NC1CCc2cc(C3=NOC(c4ccc(Cl)c(Cl)c4)(C(F)(F)F)C3)ccc21 (stereo not shown) [Example 3-890] | ≥ 98% |
| O=C(CC(F)(F)F)NC1CCc2cc(C3=NOC(c4cc(F)c(F)c(F)c4)(C(F)(F)F)C3)ccc21 (stereo not shown) [Example 3-891] | ≥ 98% |
| O=C(CC(F)(F)F)NC1CCc2cc(C3=NOC(c4cc([N+](=O)[O-])cc(C(F)(F)F)c4)(C(F)(F)F)C3)ccc21 (stereo not shown) [Example 3-892] | ≥ 98% |
| O=C(CC(F)(F)F)NC1CCc2cc(C3=NOC(c4cccc(OC(F)(F)F)c4)(C(F)(F)F)C3)ccc21 (stereo not shown) [Example 3-893] | ≥ 98% |
| CCC(=O)NC1CCc2cc(C3=NOC(c4ccc([N+](=O)[O-])cc4)(C(F)(F)F)C3)ccc21 (stereo not shown) [Example 3-895] | ≥ 98% |
| CCC(=O)NC1CCc2cc(C3=NOC(c4cc(C)cc([N+](=O)[O-])c4)(C(F)(F)F)C3)ccc21 (stereo not shown) [Example 3-896] | ≥ 98% |
| CCC(=O)NC1CCc2cc(C3=NOC(c4ccc(C(F)(F)F)c(Cl)c4)(C(F)(F)F)C3)ccc21 (stereo not shown) [Example 3-899] | ≥ 98% |
| CCC(=O)NC1CCc2cc(C3=NOC(c4ccc(Cl)c(Cl)c4)(C(F)(F)F)C3)ccc21 (stereo not shown) [Example 3-900] | ≥ 98% |
| CCC(=O)NC1CCc2cc(C3=NOC(c4ccc(C)c([N+](=O)[O-])c4)(C(F)(F)F)C3)ccc21 (stereo not shown) [Example 3-902] | ≥ 98% |
| CC(=O)CC(=O)NC1CCCc2cc(C3=NOC(c4cc(C(F)(F)F)cc(C(F)(F)F)c4)(C(F)(F)F)C3)ccc21 (stereo not shown) [Example 3-919] | ≥ 98% |
